The results in this text go back to PMC11898529, “The LSmAD Domain of Ataxin-2 Modulates the Structure and RNA Binding of Its Preceding LSm Domain”.

For at least one entry, the source does not settle the construct or the ends of the probe. At least one verdict rests on a figure or table, not on a statement of the authors. Tags and fusion partners may be left off the protein sequences shown.

The data set deals with T1, LSm domain of Ataxin-2 (UniProt Q99700).
T1 sequence (looked up): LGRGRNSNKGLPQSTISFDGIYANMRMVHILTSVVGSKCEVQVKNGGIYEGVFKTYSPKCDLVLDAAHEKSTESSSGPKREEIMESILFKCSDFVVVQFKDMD
Nature of the data set: EMSA. The note with it: 0.8 uM RNA, LSm/RNA ratio 0-20, 1 mM MgCl2; EMSA: 10 mM Tris pH 8.0, 25 mM KCl, 10 mM NaCl, 1 mM MgCl2, 10% glycerol, 0.5 mM DTT, 20 min, 25 C; recombinant protein; residues 242-344; letters put together from the description.

For the sequence “GGCCUUCGGGCCAAAUUUUUAUUUUUAUUUUUAUUUUUAUUUUUUCGAUCCGGUUCGCCGGAUCCAAAUCGGGCUUCGGUCCGGUUC [AU-rich RNA]”, the binding result is on record as “binds”.
